Some of the results follow.

Chains of the proteins cited; added tags and fusions are not shown.
UniProt Q0JBA9, entry or part of it: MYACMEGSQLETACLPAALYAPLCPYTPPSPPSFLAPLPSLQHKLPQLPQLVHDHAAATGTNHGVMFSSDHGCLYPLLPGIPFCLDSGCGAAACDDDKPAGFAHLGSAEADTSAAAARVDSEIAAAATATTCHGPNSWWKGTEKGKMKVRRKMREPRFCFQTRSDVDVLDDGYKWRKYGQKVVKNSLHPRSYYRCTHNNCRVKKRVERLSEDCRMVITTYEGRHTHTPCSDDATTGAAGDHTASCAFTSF

The assay addresses OsWRKY34 (Oryza sativa, UniProt Q0JBA9 1-250). The experiment in a line: protein-binding microarray (RPBM); PBS, 2% BSA, 51.3 ng/ul salmon testes DNA, 50 uM zinc acetate, 200 nM TF, 25 C, 1 h; high values mean tight binding. The following applies: protein: recombinant; tags: N-terminal polyhistidine and DsRed monomer fusion (pET32a); label: CyDye5-dUTP incorporated in the synthesized complementary strand; 3' TTTTT single-stranded linker to array surface; dsDNA, one strand shown. Put shortly: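 Using Ni–NTA, transcription factors fused N-terminally to polyhistidine and DsRed were purified after expression in E. coli BL21-CodonPlus. These were incubated at 200 nM with a blocked, double-stranded custom Agilent array for 1 h at 25 °C in a buffer containing 50 µM zinc acetate, and the array was washed. The binding signal is per-feature fluorescence intensity (arbitrary units) on an Axon 4000B scanner.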
For “CATGACGACTTCTACCGCCGATCGTCTTCAACTGCGCGTCCGGAGTCACCTAGTGCAG”, the binding signal was 10100 fluorescence intensity (a.u.).
As to “ACGCGCTCGTTGACTCCGTCGGGTCGCCGCTGTCGGCGGCCGGAGTCACCTAGTGCAG”, the binding signal is 8500 fluorescence intensity (a.u.).
As for “AGTAGGCTCCTCCACTTCACCACCGTCCACAGTCTCGTTCCGGAGTCACCTAGTGCAG”, the binding signal was 8660 fluorescence intensity (a.u.).
With “GGGGATTTGGTGGCCACGACGGTTGCGATGCCGGCCGGGACGGAGTCACCTAGTGCAG”, the binding signal is 10400 fluorescence intensity (a.u.).
The figure for “AATACTCCTCTACTCATATTAGTACAATATCACAAACTTACGGAGTCACCTAGTGCAG” is 8250 fluorescence intensity (a.u.).
“CGACGACCCCACCAGGGCCATCAACATCCTCCTCGACTTTCGGAGTCACCTAGTGCAG”: the binding signal was 8160 fluorescence intensity (a.u.).
Turning to “ATCTCTACTCGTCGCCGTGCTCATGGTCGTCCTCTTCGATCGGAGTCACCTAGTGCAG”, the binding signal is 13800 fluorescence intensity (a.u.).
The figure for “AATCCCAAGCTAGGTGTTGACCATGGGTCAACAATCTCCCCGGAGTCACCTAGTGCAG” is 9470 fluorescence intensity (a.u.).
To “TTCTTTTGGTCTCTCTTTTTTGTTGGATCGATCTTGTCTCCGGAGTCACCTAGTGCAG” belongs 10200 fluorescence intensity (a.u.).
Consider “ATCGTACCATTATTCAAAATTTTAAATAGTTACATGTTCACGGAGTCACCTAGTGCAG”, for which the binding signal is 8120 fluorescence intensity (a.u.).
In the case of “ATACATATACATACGGTTGACCACTTGGGCTGGGCTGGGCCGGAGTCACCTAGTGCAG”, the binding signal is 9200 fluorescence intensity (a.u.).
To “TTGTTTTTTTTGTGCTTGTGTTGTGTGTTCTTCCATCTGGCGGAGTCACCTAGTGCAG” belongs 8820 fluorescence intensity (a.u.).
The figure for “ATGGTTTTGGTTTGGTTGTTGGAGAATTGTATATGCAGGGCGGAGTCACCTAGTGCAG” is 8760 fluorescence intensity (a.u.).
To “CATCTAGTTGCCTCTTGTTCTCTGCTCAGGCCGGTTTTGTCGGAGTCACCTAGTGCAG” belongs 9120 fluorescence intensity (a.u.); to “CTCGTTTACCTTACTCTCGCTTAGTTCGTTGAGGCATTTCCGGAGTCACCTAGTGCAG”, 14900 fluorescence intensity (a.u.); to “CCAAATTCTATGGCCATCTTTGTCTTCCAGTTTGATCCTTCGGAGTCACCTAGTGCAG”, 12200 fluorescence intensity (a.u.).
On to “GCCGGATCGGGTGGCTGGGTTGGTTGAGGGTCCAAGAAAGCGGAGTCACCTAGTGCAG”, for which the binding signal was 12100 fluorescence intensity (a.u.).
The figure for “ATGTTTGACCGTTCGTCTTATTCAAAAACTTTTGTAAAATCGGAGTCACCTAGTGCAG” is 10100 fluorescence intensity (a.u.); for “TCTTTGCCTATCTCTGCTTCCTTCCTGTCTCCTTCTTCTTCGGAGTCACCTAGTGCAG” it is 9220 fluorescence intensity (a.u.); for “ATCCAGAATCCTCCAATGCCACACATGACCCGGTCAACATCGGAGTCACCTAGTGCAG” it is 10200 fluorescence intensity (a.u.).
To “AATTCCTCTGCGGCCGCCACGTGCACGCGCCGCCGTTGCCCGGAGTCACCTAGTGCAG” belongs 8630 fluorescence intensity (a.u.); to “GCATTCCGGACCATTCTCGCTCTCGCATGGCAAGGCCGGCCGGAGTCACCTAGTGCAG”, 8670 fluorescence intensity (a.u.).
To “CTTACATTATATTTTTCTTCATTTGTGTTTTATTTACAGTCGGAGTCACCTAGTGCAG” belongs 9710 fluorescence intensity (a.u.); to “ATGCGAGGACGTTGACGATAGAGAGTTGACCAAGAATTTTCGGAGTCACCTAGTGCAG”, 9480 fluorescence intensity (a.u.).
On to “GCTTGGTTTGGTTTGAGGCCTAGGCTTGTTCACTTTGATGCGGAGTCACCTAGTGCAG”, for which the binding signal is 8400 fluorescence intensity (a.u.).
The figure for “AATCAATGTACTACCTACATCCTTAATCTATGACGCCATCCGGAGTCACCTAGTGCAG” is 8210 fluorescence intensity (a.u.); for “TTACGTCTTAGAGTCCGTGCTACACCTGATCACTACAAATCGGAGTCACCTAGTGCAG” it is 11100 fluorescence intensity (a.u.).
To “TCCCTGCTCATCGTCTGATCGCCACGCAAGCTGCCACGTCCGGAGTCACCTAGTGCAG” belongs 10700 fluorescence intensity (a.u.).
To “CCTTAATGCTCGAGATATACTAATACTACTCCCTTTGTTTCGGAGTCACCTAGTGCAG” belongs 10400 fluorescence intensity (a.u.); to “CAATGTATTCAGGTACGCCGATTATTTGGTTGGTAGTAGTCGGAGTCACCTAGTGCAG”, 11500 fluorescence intensity (a.u.); to “CACCTCACCGAGCTCCGCCCGCCACGAGACCATCCGTCGCCGGAGTCACCTAGTGCAG”, 8890 fluorescence intensity (a.u.).
Consider “GATGTGTTCTCCGTGTTCTTGATGTTTCCGGCTGGGGTTCCGGAGTCACCTAGTGCAG”, for which the binding signal was 9100 fluorescence intensity (a.u.).
To “ATTATGCTTGCTGCTGCTGCTGTTGTTGTAACACTAGTGACGGAGTCACCTAGTGCAG” belongs 10200 fluorescence intensity (a.u.); to “CGATTGCTTGTAGTAACTCTTTCGTGTATTTATGGGGTTACGGAGTCACCTAGTGCAG”, 8360 fluorescence intensity (a.u.).
For the sequence “AATTTTATTTTTACCCCTACTTGGATATGTGCCCCTGTTTCGGAGTCACCTAGTGCAG”, the binding signal was 9100 fluorescence intensity (a.u.).
The figure for “GCGGAATAGGAGGGCATCGATGTGCTGGGCTGTGAATTTTCGGAGTCACCTAGTGCAG” is 8280 fluorescence intensity (a.u.); for “GTTCATTTCTAGTCGTCTTAATGTTTATTTGAAAATTTATCGGAGTCACCTAGTGCAG” it is 8300 fluorescence intensity (a.u.); for “TGGCTAGCGAGTCTTGACCCATTTGTCGGTCCACCTCTATCGGAGTCACCTAGTGCAG” it is 8400 fluorescence intensity (a.u.).
The figure for “ATCCCCATCCTATGCTCGCCCCATGTCGTCGCGTCCGCCTCGGAGTCACCTAGTGCAG” is 11100 fluorescence intensity (a.u.); for “AATTTTAGAGTTAATTTTATTTTTACCGTACTTTATTTTTCGGAGTCACCTAGTGCAG” it is 8040 fluorescence intensity (a.u.).
On to “CCCGCCGCCTCCACGCATTCCTTCGCCCACCAAAACCCTACGGAGTCACCTAGTGCAG”, for which the binding signal is 9460 fluorescence intensity (a.u.).
The figure for “TTCTTCTTCTTCTTCTTCGGTGACAATCTCCGTTTCGTCTCGGAGTCACCTAGTGCAG” is 8380 fluorescence intensity (a.u.).

(Values after paper PMC7819943, “Rice protein-binding microarrays: a tool to detect cis-acting elements near promoter regions in rice”.)
